Assay results as given in patent publication US6057294A, “Peptide” (Northern Sydney Area Health Service of Pacific Highway, priority 1995, dated 2000).
Part of at least one peptide drawing is inferred or uncertain, most often the ends. Ends that are not written are not given here.

Tests used:
[1] = system: 2B4.11 T-cell activation (IL-2 production); experiment: Antigen presentation assay (IL-2 production by 2B4.11 T-cells, CTLL proliferation readout); format: cell-based; details: 100 μM
From the text: An antigen presentation assay (described below) examined the ability of a number of peptides to inhibit T-cell activation following antigen recognition, by measuring the product of T-cell activation, Interleukin-2 (IL-2).
Material. The following cell lines were used: 2B4.11, a T-cell hybridoma that expresses a complete antigen receptor on the cell surface (Samelson et al., 1983) and produces IL-2 following antigen recognition (cytochrome c). Interleukin-2 dependent T-cell line (CTLL) for conventional biological IL-2 assays; and the B-cell hybridoma cell line LK 35.2 (LK, I-E^k bearing; Kappler et al., 1982) which acts as the antigen presenting cell. The hybridomas were grown in TCM. Cytochrome c (Sigma, USA) was added in the media to give a final concentration of 50 μM in the antigen presenting assay.
Peptides examined included: core peptide, seven other control peptides from a variety of sources having an equivalent length to core peptide and peptides A, B, C, D, E and F. The final concentration of the peptides in the antigen presentation assay was examined at several levels ranging from 10 μM to 100 μM.
Method. […] Supernatants were recovered and IL-2 content determined by CTLL proliferation. […] In addition to measuring ^3 H-thymidine incorporation, IL-2 measurements (IU/ml) were also determined. […]

[2] = system: adjuvant induced arthritis in rats; experiment: Adjuvant induced arthritis in rats; format: in vivo, rat; details: comparison among peptides

Substance	reduction in IL-2 production compared to control [1]	effect on adjuvant arthritis [2]
LKILLLRV [Peptide C, Leu-Lys-IIe-Leu-Leu-Leu-Arg-Val-OH]	15%-30%	–
LDILLLEV-OH [D]	–	no effect
LRILLLIKV-OH [E]	–	lower efficacy
